PubChem BioAssay AID1224828 | NIAID | 2016
This is an unselected part of about 17,000 reagents tested. In the full data, 762 (4.5%) are marked active. 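Active calls include both raised and lowered p65 entry, mostly lowered; wells with fewer than 50 cells lack a z-score.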 Raw values vary from plate to plate and are shown uncorrected.

Aim: 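Find genes required for NF-kappaB p65 moving into the nucleus after LPS in mouse macrophages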 (primary screen)
Cell system: mouse RAW264.7 G9 macrophage reporter cells (GFP-p65, Tnf promoter-mCherry)
Knock-down reagent: siRNA pool against mouse genes, 100 nM
Timing: 2 days siRNA transfection, then 40 min LPS before fixation
Treatment: LPS (Salmonella minnesota R595) at 10 ng/ml
Measurement: 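Imaged p65 nuclear translocation ratio, normalised to the plate median, converted to robust z-scores and averaged across two replicates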
Direction: p65 translocation robust z-score: higher = more nuclear NF-kappaB p65 after LPS than the plate median; nuclear/cytoplasmic p65 ratio: higher = more nuclear NF-kappaB p65
Call rule: 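Called active when z exceeds 3.3 or falls under -1.56 (median of Tlr4 controls), giving activity score of at least 50; no calls for control wells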
Calls: active = hit (p65 shift raised or lowered); inactive = no clear change

gene	p65 translocation robust z-score	nuclear/cytoplasmic p65 ratio, rep 1	nuclear/cytoplasmic p65 ratio, rep 2	low cell count flag	Outcome
Epha6 (GeneID 13840)	-0.49	1.54	1.38	enough cells to score	inactive
Or5w17 (GeneID 258630)	-0.58	1.66	1.41	enough cells to score	inactive
Pramel37 (GeneID 381724)		1.25	1.24	fewer than 50 cells per well; well left out of scoring	inactive
Pilrb1 (GeneID 170741)		1.43	1.11	fewer than 50 cells per well; well left out of scoring	inactive
Tex46 (GeneID 67663)		1.37	1.37	fewer than 50 cells per well; well left out of scoring	inactive
Ttf1 (GeneID 22130)	-0.35	1.5	1.42	enough cells to score	inactive
Or8c8 (GeneID 258802)	0.1	1.62	1.44	enough cells to score	inactive
Oprd1 (GeneID 18386)	1.23	1.61	1.84	enough cells to score	inactive
Dhx15 (GeneID 13204)	-3.4	1.05	1.23	enough cells to score	active
Vps37b (GeneID 330192)	-0.88	1.42	1.72	enough cells to score	inactive
Rnf151 (GeneID 67504)	0.93	1.52	1.46	enough cells to score	inactive
Wnk4 (GeneID 69847)	-0.75	1.5	1.34	enough cells to score	inactive
Pate4 (GeneID 56872)		1.3	1.2	fewer than 50 cells per well; well left out of scoring	inactive
Carhsp1 (GeneID 52502)	-1.17	1.44	1.57	enough cells to score	inactive
C130074G19Rik (GeneID 226777)	1.53	1.68	1.69	enough cells to score	inactive
Zfp607b (GeneID 112415)	0	1.35	1.52	enough cells to score	inactive
Uba1 (GeneID 22201)	-0.25	1.49	1.46	enough cells to score	inactive
Fbxo21 (GeneID 231670)	-1.27	1.36	1.2	enough cells to score	inactive
Spc25 (GeneID 66442)	0.58	1.71	1.69	enough cells to score	inactive
Rbsn (GeneID 78287)	-0.2	1.32	1.22	enough cells to score	inactive
Prdm2 (GeneID 110593)	0.82	1.76	1.71	enough cells to score	inactive
Vcpip1 (GeneID 70675)	0.86	1.45	1.6	enough cells to score	inactive
Pdhx (GeneID 27402)	-0.87	1.43	1.21	enough cells to score	inactive
Trpv6 (GeneID 64177)	0.46	1.57	1.58	enough cells to score	inactive
Xylt2 (GeneID 217119)	-0.01	1.41	1.25	enough cells to score	inactive
Egr2 (GeneID 13654)	-0.41	1.45	1.28	enough cells to score	inactive
Adamts15 (GeneID 235130)	-0.41	1.57	1.55	enough cells to score	inactive
Adgrv1 (GeneID 110789)	1.67	1.68	1.54	enough cells to score	inactive
Dctn6 (GeneID 22428)	1.14	1.76	1.69	enough cells to score	inactive
Hrob (GeneID 217216)	0.07	1.53	1.92	enough cells to score	inactive
Cd55 (GeneID 13136)	-0.92	1.37	1.23	enough cells to score	inactive
Smap2 (GeneID 69780)		1.49	1.21	fewer than 50 cells per well; well left out of scoring	inactive
Aff2 (GeneID 14266)	-0.34	1.44	1.27	enough cells to score	inactive
Mrpl53 (GeneID 68499)	0.39	1.86	1.64	enough cells to score	inactive
Ubd (GeneID 24108)	-0.91	1.39	1.37	enough cells to score	inactive
Phyhip (GeneID 105653)	-0.67	1.32	1.17	enough cells to score	inactive
Hsp90aa1 (GeneID 15519)	0.46	1.32	1.45	enough cells to score	inactive
Wls (GeneID 68151)	-0.7	1.25	1.39	enough cells to score	inactive
Ppm1g (GeneID 14208)	-0.21	1.39	1.45	enough cells to score	inactive
Ubr7 (GeneID 66622)	2.08	1.65	1.71	enough cells to score	inactive
Six4 (GeneID 20474)	-1	1.36	1.46	enough cells to score	inactive
Homez (GeneID 239099)	-2.02	1.19	1.39	enough cells to score	active
Dvl3 (GeneID 13544)	2.49	1.78	1.73	enough cells to score	inactive
Crkl (GeneID 12929)	0.16	1.73	1.41	enough cells to score	inactive
Il10 (GeneID 16153)	0.78	1.49	1.52	enough cells to score	inactive
Map3k3 (GeneID 26406)	-0.27	1.62	1.36	enough cells to score	inactive
Aaas (GeneID 223921)	0.39	1.61	1.73	enough cells to score	inactive
Prokr2 (GeneID 246313)	-0.46	1.38	1.58	enough cells to score	inactive
Ptger2 (GeneID 19217)	-0.3	1.45	1.57	enough cells to score	inactive
Gnpat (GeneID 14712)	0.16	1.32	1.41	enough cells to score	inactive
Or5ap2 (GeneID 258573)	0.36	1.76	1.59	enough cells to score	inactive
2900060N12Rik (GeneID 102641621)		1.19	1.33	fewer than 50 cells per well; well left out of scoring	inactive
Cd70 (GeneID 21948)	-0.06	1.47	1.55	enough cells to score	inactive
Trim44 (GeneID 80985)	1.29	1.6	1.34	enough cells to score	inactive
Or5p59 (GeneID 258730)	0.9	1.52	1.41	enough cells to score	inactive
Ep300 (GeneID 328572)	-2.11	1.46	1.09	enough cells to score	active
Hspa1a (GeneID 193740)	1.07	1.56	1.53	enough cells to score	inactive
Amigo3 (GeneID 320844)	0.77	1.82	1.7	enough cells to score	inactive
Galnt4 (GeneID 14426)	-0.69	1.6	1.27	enough cells to score	inactive

6 entries already listed, arranged by “nuclear/cytoplasmic p65 ratio, rep 2”, highest first.
gene	p65 translocation robust z-score	nuclear/cytoplasmic p65 ratio, rep 1	nuclear/cytoplasmic p65 ratio, rep 2	low cell count flag	Outcome
C130074G19Rik (GeneID 226777)	1.53	1.68	1.69	enough cells to score	inactive
Spc25 (GeneID 66442)	0.58	1.71	1.69	enough cells to score	inactive
Zfp607b (GeneID 112415)	0	1.35	1.52	enough cells to score	inactive
Uba1 (GeneID 22201)	-0.25	1.49	1.46	enough cells to score	inactive
Rbsn (GeneID 78287)	-0.2	1.32	1.22	enough cells to score	inactive
Fbxo21 (GeneID 231670)	-1.27	1.36	1.2	enough cells to score	inactive
